# Screening data, single-dose tests

By UniProt entry, the sequences of proteins in these tests, tags left out. Residues count along the entry.
UniProt P9WNZ1, whole entry: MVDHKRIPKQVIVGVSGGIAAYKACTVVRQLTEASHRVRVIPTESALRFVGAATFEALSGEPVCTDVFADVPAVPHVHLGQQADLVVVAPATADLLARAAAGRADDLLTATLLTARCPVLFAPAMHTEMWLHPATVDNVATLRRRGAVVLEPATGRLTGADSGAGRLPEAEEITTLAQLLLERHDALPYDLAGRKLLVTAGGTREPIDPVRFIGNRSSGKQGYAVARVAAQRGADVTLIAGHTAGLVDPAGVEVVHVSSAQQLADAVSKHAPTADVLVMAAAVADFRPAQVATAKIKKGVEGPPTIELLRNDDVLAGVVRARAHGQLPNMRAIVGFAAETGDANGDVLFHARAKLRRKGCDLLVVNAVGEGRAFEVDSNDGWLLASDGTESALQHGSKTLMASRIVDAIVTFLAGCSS
UniProt Q8IDJ8, 1-583: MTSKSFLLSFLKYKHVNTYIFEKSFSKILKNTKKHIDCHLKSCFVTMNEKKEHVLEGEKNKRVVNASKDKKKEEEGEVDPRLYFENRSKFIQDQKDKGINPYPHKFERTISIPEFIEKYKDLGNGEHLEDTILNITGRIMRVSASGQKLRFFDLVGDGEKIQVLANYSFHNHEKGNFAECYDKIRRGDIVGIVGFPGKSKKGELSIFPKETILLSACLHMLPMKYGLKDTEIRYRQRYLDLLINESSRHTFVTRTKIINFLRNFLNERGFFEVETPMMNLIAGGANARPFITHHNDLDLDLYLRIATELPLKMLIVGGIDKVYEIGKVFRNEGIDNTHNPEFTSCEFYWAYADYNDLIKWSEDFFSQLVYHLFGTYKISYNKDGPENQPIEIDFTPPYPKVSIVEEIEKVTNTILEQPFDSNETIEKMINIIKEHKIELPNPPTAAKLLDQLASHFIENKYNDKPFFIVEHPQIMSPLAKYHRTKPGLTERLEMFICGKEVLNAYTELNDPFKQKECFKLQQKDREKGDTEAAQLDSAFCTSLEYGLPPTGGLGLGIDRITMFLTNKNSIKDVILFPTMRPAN
UniProt A4I591, 1-473: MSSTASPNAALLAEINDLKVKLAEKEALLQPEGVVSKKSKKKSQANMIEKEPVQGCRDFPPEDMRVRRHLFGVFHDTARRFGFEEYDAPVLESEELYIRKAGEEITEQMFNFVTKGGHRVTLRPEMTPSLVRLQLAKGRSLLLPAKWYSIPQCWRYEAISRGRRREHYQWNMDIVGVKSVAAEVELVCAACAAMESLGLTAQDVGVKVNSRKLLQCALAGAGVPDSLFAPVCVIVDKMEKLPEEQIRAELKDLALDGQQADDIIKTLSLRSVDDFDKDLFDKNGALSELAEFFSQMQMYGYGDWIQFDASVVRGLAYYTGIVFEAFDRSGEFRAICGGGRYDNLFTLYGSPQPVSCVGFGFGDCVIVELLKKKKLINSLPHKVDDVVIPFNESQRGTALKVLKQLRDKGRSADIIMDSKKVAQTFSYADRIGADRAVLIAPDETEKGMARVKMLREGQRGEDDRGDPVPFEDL

CoaBC: 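Enzyme assay of CoaBC with a phosphate dye (Biomol Green) read at 650 nm. Target: Coenzyme A biosynthesis protein CoaBC, Mycobacterium tuberculosis (UniProt P9WNZ1). Concentration: 30 µM. Higher reads as stronger inhibition, judged from the few compounds that gave an IC50. Most strong results did not repeat in a second test. About 67,000 compounds were tested under these conditions; 0.06% (about 40) showed 50% or more at least once.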
PfKRS1: 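Lysine-tRNA ligase, Plasmodium falciparum 3D7 (UniProt Q8IDJ8). Enzyme assay of the cytosolic lysyl-tRNA synthetase in 384-well plates, read by luminescence. Compounds at 30 µM. Direction is inferred from only a few compounds that gave an IC50; most scored high, so higher reads as stronger inhibition. Size under these conditions: about 69,000 compounds, about 49 of them at 50% or above in at least one test.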
LiHisRS: 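Histidine-tRNA ligase, Leishmania infantum (UniProt A4I591). Enzyme assay of histidyl-tRNA synthetase; the read-out is not stated. Concentration: 30 µM. Direction is inferred from retests: higher values go with stronger inhibition. The assay is labelled LdHisRS but filed under L. infantum. About 69,000 compounds were tested under these conditions; 0.6% (about 410) showed 50% or more at least once.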

Each number is a percent effect as filed. How 0% and 100% were set is not recorded. Most values in the screen are low, and negative values occur. Compounds were drawn at random from those tested, without regard to their results.

With CCOCC1CN(C(=O)C2=CCCC2)Cc2cnn(CC)c21 (centres undefined) the screen gave CoaBC: 12.85%; PfKRS1: 3.132%; LiHisRS: 13.53%.
With O=C1COC2(CCN(CC3CC3)CC2)CN1c1cncnc1 the screen gave CoaBC: 4.511%; PfKRS1: 0.6175%; LiHisRS: 15.38%.
With CCS(=O)(=O)N1Cc2ccccc2CC1C(=O)OCc1c(C)noc1C (centres undefined) the screen gave CoaBC: 4.317%; PfKRS1: 3.921%; LiHisRS: 11.67%.
With CCN(CC1CCOC1)C(=O)c1ccccc1S(C)(=O)=O (centres undefined) the screen gave CoaBC: 4.215%; PfKRS1: 0.2634%; LiHisRS: 15.18%.
With O=C(c1cccnc1)N1CCn2nnc(COc3cccnc3)c2C1 the screen gave CoaBC: 1.416%; PfKRS1: 7.528%; LiHisRS: 13.73%.
With Cc1nc(CN2CCC(N(C)Cc3nnc(C4CC4)n3C)C2)oc1C (centres undefined) the screen gave CoaBC: 0.8772%; PfKRS1: 8.3%; LiHisRS: 10.71%.
With Cc1ccc2[nH]c(CN(C)Cc3n[nH]c4c3CCC4)nc2c1 the screen gave CoaBC: -11.68%; PfKRS1: 1.895%; LiHisRS: 7.143%.
With CCNc1cc(N2CCN(C(=O)c3ccc(OC)cc3)CC2)nc(C)n1 the screen gave CoaBC: 3.739%; PfKRS1: 1.777%; LiHisRS: 2.4%.
With Cc1cc(C(=O)NCC(F)(F)F)c2c(C3CCCN3)noc2n1 (centres undefined) the screen gave CoaBC: 4.211%; PfKRS1: 3.548%; LiHisRS: 71.72%.
With CCn1cnnc1CNC(=O)N1CCOC(c2ccccc2Cl)C1 (centres undefined) the screen gave CoaBC: 2.822%; PfKRS1: 3.696%; LiHisRS: 15.69%.
With Cc1ccc(-c2cc(C(F)(F)F)nc(N3CCOCC3)n2)s1 the screen gave CoaBC: 0.7282%; PfKRS1: -0.7172%; LiHisRS: 11.9%.
With O=C(NCC1=CCCCC1)C(c1cccnc1)N1CCOCC1 (centres undefined) the screen gave CoaBC: 14.1%; PfKRS1: 5.847%; LiHisRS: 0%.
With OCCc1cc(C2CCCN2c2ncccn2)n[nH]1 (centres undefined) the screen gave CoaBC: 14.53%; PfKRS1: 0.7752%; LiHisRS: 0%.
With Cc1cccnc1CNc1ccc(C(=O)N2CCc3ccccc32)cn1 the screen gave CoaBC: 1.364%; PfKRS1: 1.954%; LiHisRS: 21.92%.
With CC(c1ccc(Cl)cc1)N1CCN(CCS(C)(=O)=O)CC1 (centres undefined) the screen gave CoaBC: 1.493%; PfKRS1: 5.851%; LiHisRS: 19.23%.
With COC[C@@H]1CC[C@H]2[C@H](CCN2S(=O)(=O)c2cccc(C)c2)O1 the screen gave CoaBC: 3.732%; PfKRS1: 0.1662%; LiHisRS: 7.843%.
With CCc1nccn1C1CCCN(C(=O)c2cnc[nH]2)C1 (centres undefined) the screen gave CoaBC: 6.947%; PfKRS1: -3.156%; LiHisRS: 11.32%.
With CCCc1nnc(N2CCC(N3CCN(CCO)CC3)CC2)o1 the screen gave CoaBC: -4.136%; PfKRS1: 6.925%; LiHisRS: 15.56%.
With COc1ccc(NC(=O)CSc2ccc3nncn3n2)c(OC)c1 the screen gave CoaBC: -0.8505%; PfKRS1: -5.638%; LiHisRS: 4.348%.
With Cn1cc(CN(C(=O)c2ccc3ncsc3c2)C2CC2)cn1 the screen gave CoaBC: 7.905%; PfKRS1: -2.319%; LiHisRS: 8.434%.
With Brc1ccc2[nH]c3c(c2c1)CCCC3c1nn[nH]n1 (centres undefined) the screen gave CoaBC: -1.446%; PfKRS1: -0.6864%; LiHisRS: -12.09%.
With O=C1O[C@@H]2CN(CCc3ccccc3)C[C@@H]2N1CCCN1CCOCC1 the screen gave CoaBC: 2.784%; PfKRS1: -3.373%; LiHisRS: 25%.
With COCCCN1C(=O)CC(N2CCN(c3ccc(F)cc3)CC2)C1=O (centres undefined) the screen gave CoaBC: -4.43%; PfKRS1: 1.369%; LiHisRS: 17.5%.
With CNC(=O)NCC(=O)N1CCCC1Cc1cccc(F)c1 (centres undefined) the screen gave CoaBC: -1.556%; PfKRS1: 5.999%; LiHisRS: 9.91%.
With COc1ccc(F)c(CN2CCCC(O)(CNCc3ncc[nH]3)C2=O)c1 (centres undefined) the screen gave CoaBC: 1.944%; PfKRS1: 3.225%; LiHisRS: 40%.
With CCCC(=O)N1CCC(Cc2ccccc2-c2ccccc2)(C(N)=O)C1 (centres undefined) the screen gave CoaBC: -6.072%; PfKRS1: 2.016%; LiHisRS: 12%.
With CCc1nc(-c2ccc(NC(=O)N3CCOCC3)cc2)no1 the screen gave CoaBC: 3.038%; PfKRS1: 3.321%; LiHisRS: 18.42%.
With CCC(C)NS(=O)(=O)Cc1cccc(NC(=O)c2cc[nH]c2C)c1 (centres undefined) the screen gave CoaBC: 7.231%; PfKRS1: -4.69%; LiHisRS: 5.479%.
With COc1cc(-c2cccc3c2OC(CN)C3)ccc1O (centres undefined) the screen gave CoaBC: 8.516%; PfKRS1: -1.946%; LiHisRS: 0%.
With C[C@@]1(O)CCN(Cc2cc[nH]n2)C[C@H]1Oc1cccc(F)c1 the screen gave CoaBC: -1.214%; PfKRS1: 3.046%; LiHisRS: 21.74%.

Once more, the final 2:

- COc1cc(-c2cccc3c2OC(CN)C3)ccc1O (centres undefined) : CoaBC: 8.516%; PfKRS1: -1.946%; LiHisRS: 0%
- C[C@@]1(O)CCN(Cc2cc[nH]n2)C[C@H]1Oc1cccc(F)c1 : CoaBC: -1.214%; PfKRS1: 3.046%; LiHisRS: 21.74%

Measurements from “University of Dundee, Small-Polar-MMV Screening Library” (2021), ChEMBL document CHEMBL3988442.